From US5372944A, “Method for conversion of halogenated hydrocarbons to halohydrins” (The Dow Chemical Company, priority 1993, dated 1994)

Test system: double mutants lacking both ADH and halohydrin dehalogenase activity
Test: Whole cell conversion of DCP, DCB and TCP by double mutants: kinetics, selectivity, enantioselectivity
Assay type: cell-based, Rhodococcus species
Conditions: for preferential conversion of one enantiomer: ADH negative mutants of TDTM-003 or double mutants
Description: To evaluate kinetics and selectivity of various mutants with respect to conversion of the target halocarbons, 1,2-dichloropropane (DCP), 1,2-dichloro-butane (DCB) and 1,2,3-trichloropropane (TCP) cultures were first inoculated from slants into 25 mL nutrient media in a 125 mL flask and grown overnight. Five mL were inoculated into 50 mL of MM1X4P containing 5 g/L disodium succinate in a 250 mL flask. Following 4 hours of growth and again at 8 hours, 10 μl of 1-chlorobutane was added for induction of the dehalogenase. Following 24 hours growth, cells were harvested by centrifugation and resuspended into 50 mL of fresh sterile MM1X4P and transferred to a sterile 250 mL shake flask equipped with a bulb feeder as described by Gibson, et al., supra. DCP, DCB, and TCP were added to bulb feeders and reaction progress monitored by gas chromatography (GC). Throughout the protocol, volumes were modified as needed to provide higher concentrations of cells and/or to provide identical batches of induced cells for comparative studies.
For gas chromatography (GC) analysis of halogenated metabolites, cultures were centrifuged briefly to remove cells, saturated with sodium sulfate, and an equivalent volume of methylene chloride added. The suspension was vortexed vigorously, centrifuged to break the emulsion and the methylene chloride phase removed.
Analysis of all halocarbon substrates and products from culture broths was done by GC using a Hewlett Packard 5710 equipped with a 7671A Autoinjector with the following protocol:
Analysis for optical activity of microbially produced 2,3-dichloro-1-propanol was determined independently using two methods. Polarimetry was performed using a Horiba SEPA 200 polarimeter, and optical rotations were compared to a standard curve to provide an estimate of enantiomeric excess. Gas chromatographic separation of 2,3-dichloro-1-propanol enantiomers was done using a 5 percent phenyl silicone/95 percent methyl silicone column (DB-5 column, J&J scientific) following formation of diesteromeric monoesters with S(+)-2-phenyl butyric acid. Enantiomeric composition of DCP, DCB, and respective halohydrins can also be monitored using a derivatized cyclodexdrin gas chromatography column (CHIRALDEX™ type B-TA Column, Advanced Separation Technologies, Inc.). Enantiomeric excess was determined by a comparison of peak areas.
The double mutants were evaluated for conversion of DCP, DCB, and TCP following growth on succinate in the presence of 1-chlorobutane as an inducer of the dehalogenase. There was no substantial difference with respect to overall rate or product selectivity by the double mutants. […] The in vivo rates of conversion for DCP vs. DCB vs. TCP were 0.30, 1.29, and 1.06 mg product/g dry cells/hr, respectively. […] In contrast, DCP is preferentially dehalogenated at the secondary carbon with approximately a 3 to 1 selectivity.
DCP and DCB are racemic mixtures, whereas TCP is an achiral meso compound. […] Optical activity was not expected nor observed in the halohydrin products from 1,2-DCP and 1,2-DCB. […] Furthermore, when ADH negative mutants were induced with 1-chlorobutane and then presented with TCP, 2,3-dichloro-1-propanol accumulates transiently but then completely disappears as glycidol begins to accumulate. […] The observation was confirmed by isolating the 2,3-dichloro-1-propanol generated from TCP by a double mutant and examining optical activity by polarimetry and GC.

[1] = 2,3-dichloro-1-propanol generated from TCP by a double mutant

| SMILES | selectivity of dehalogenation site (primary vs secondary carbon) (double mutants) | Enantiomeric excess by GC analysis of diastereomers [1] [%] | Enantiomeric excess by polarimetry [1] [%] | preferential conversion of one enantiomer | share dehalogenated at the secondary carbon (double mutants) [%] |
| --- | --- | --- | --- | --- | --- |
| ClCC(Cl)CCl [1,2,3-trichloropropane] | exclusively dehalogenated at the primary carbon | – | – | – | – |
| OCC(Cl)CCl (stereo not shown) [2,3-dichloro-1-propanol] | – | 41 | 31 | – | – |
| CC(Cl)CCl (stereo not shown) [1,2-dichloropropane] | 3 to 1 | – | – | no indication of preferential conversion of one enantiomer over the other | – |
| CCC(Cl)CCl (stereo not shown) [1,2-dichlorobutane] | – | – | – | no indication of preferential conversion of one enantiomer over the other | 3 |
